The source gives many values for each of these; only a part stands here.
Test system: wildtype (WT) human fibroblast cell lines
Experiment: Transcriptome-wide splicing by RNA sequencing (RNASeq), exon triplet PSI change;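 as to Effect: six WT fibroblast lines treated seven days versus DMSO vehicle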;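 as to T-PSI: T-PSI is average treated PSI after seven days of treatment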
Format: cell-based
Parameters: key to Effect: Exclusion; Inclusion; Unchanged
Excerpt: FIG. 2A provides a representation of an exon triplet. Exon U is upstream of Exon X, which is upstream of Exon D. R1, R2 and R3 represent RNA sequencing (RNASeq) reads spanning the regions between two adjacent exons. UI1, I1X, XI2 and I2D are four regions flanking the four splice sites of the exon-triplet. Each flanking region consists of 25 exonic base pairs and 75 intronic base pairs.
FIG. 2B provides a volcano plot showing the ψ (PSI: Percent Spliced-In) changes in splicing after treatment with Compound (I). Each dot represents one of the 161,097 expressed exon triplets in human fibroblasts. The x axis represents the ψ changes after treatment and the y axis represents the False Discovery Rate (FDR) (log 10 transformed). […] The horizontal dashed line indicates an FDR of 0.1. The dots on the right side of the right vertical dashed line and above the horizontal dashed line represent the exon-triplets with an increase for Exon X inclusion (Δψ≥0.1 and FDR<0.1) while the dots on left side of the left vertical dashed line and above the horizontal dashed line represent an increase for Exon X exclusion (Δψ≤−0.1 and FDR<0.1). Black dots in-between the two vertical dashed lines represent exon-triplets unchanged from the treatment.
In some aspects, analysis is performed on data derived from the assay to measure the magnitude of splicing to determine the amount of exons spliced into an mRNA transcript that is produced in the presence of Compound (I) relative to the amount in the absence of Compound (I) or presence of a negative control. In a preferred aspect, the method utilized is calculation of change in Percent Spliced In (ΔPSI). […] The ΔPSI value is derived from the formula: […]
The values for “a” and “b” represent the number of reads supporting the probability for potential inclusion or exclusion of an exon in an RNA transcript. The “a” value is derived from the number of reads within an exon triplet covering, in 5′ to 3′ order: the last few bases (>1 nucleotide) of an upstream exon operably linked to the first few bases (>1 nucleotide) of a middle exon. The “b” value is derived from the number of reads within an exon triplet covering, in 5′ to 3′ order: the last few bases (>1 nucleotide) of the middle exon operably linked to the first few bases (>1 nucleotide) of a downstream exon. The number of reads will indicate whether the splice junction of a middle exon has been identified as potentially having a CNN Motif(s) by the CNN Model described herein, wherein the inclusion or exclusion of the middle exon may be modulated in the presence of Compound (I) to produce one or more mature RNA isoforms from the gene transcript. The value for “c” represents the number of reads supporting the exclusion of the middle exon.
The effect on splicing modulation and corresponding splice differences toward exon inclusion or exclusion was determined by counting the RNASeq reads covering two splice junctions of exon triplets (three consecutive exons: Exon U, Exon X, Exon D) and the corresponding intervening introns, then comparing the change in Percent Spliced In (ΔPSI or Δψ) of the middle exon (Exon X) after treatment (as shown in FIG. 2A)^52,53. 934 exon triplets were identified showing differential middle exon inclusion or exclusion in response to Compound (I) treatment. Of these, 254 were exon inclusion events (Δψ≥0.1 and FDR<0.1) and 680 were exon exclusion events (Δψ≤−0.1 and FDR<0.1) (as shown in FIG. 2B). […] The splicing results were evaluated by RT-PCR in independent replicate experiments, confirming all the calculated Δψ values. […]

[1] = FAM114A1 Exon 38879692-38880047
[2] = FAM149B1 Exon 74994951-74995076
[3] = FAM160B2 Exon 21947272-21947365
[4] = FAM204A Exon 120101239-120101439
[5] = FAM211A-AS1 Exon 16342842-16343017
[6] = FAM211A-AS1 Exon 16342895-16343017
[7] = FAM211A-AS1 Exon 16342974-16343017
[8] = FBXW11 Exon 171341347-171341409
[9] = PHLDB1 Exon 118484009-118484165
[10] = PIKFYVE Exon 209138742-209138777

For Clc1nc(NCc2ccncc2)c2cc[nH]c2n1 [Compound (I), 2-chloro-N-(pyridin-4-ylmethyl)-7H-pyrrolo[2,3-d]pyrimidin-4-amine], the Effect (FAM111A Exon 58910970-58913329) was “Exc”, the T-PSI (FAM111A Exon 58910970-58913329) was 0.699 and the ΔPSI (FAM111A Exon 58910970-58913329) was −0.201. For the same compound, the Effect [1] was “Unc”, the T-PSI [1] was 0.906 and the ΔPSI [1] was 0.008. The Effect (FAM134C Exon 40739852-40739882) was “Exc”, the T-PSI (FAM134C Exon 40739852-40739882) was 0.878 and the ΔPSI (FAM134C Exon 40739852-40739882) was −0.101. The Effect [2] was “Exc”, the T-PSI [2] was 0.795 and the ΔPSI [2] was −0.133. The Effect [3] was “Unc”, the T-PSI [3] was 0.108 and the ΔPSI [3] was 0.007. For the same compound, the Effect (FAM172A Exon 93386436-93386536) was “Exc”, the T-PSI (FAM172A Exon 93386436-93386536) was 0.677 and the ΔPSI (FAM172A Exon 93386436-93386536) was −0.147. The Effect (FAM172A Exon 93410351-93410474) was “Inc”, the T-PSI (FAM172A Exon 93410351-93410474) was 0.790 and the ΔPSI (FAM172A Exon 93410351-93410474) was 0.146. For the same compound, the Effect (FAM173A Exon 772084-772134) was “Unc”, the T-PSI (FAM173A Exon 772084-772134) was 0.796 and the ΔPSI (FAM173A Exon 772084-772134) was 0.002. The Effect (FAM175A Exon 84391356-84391549) was “Unc”, the T-PSI (FAM175A Exon 84391356-84391549) was 0.892 and the ΔPSI (FAM175A Exon 84391356-84391549) was 0.005. The Effect (FAM175A Exon 84405145-84405319) was “Unc”, the T-PSI (FAM175A Exon 84405145-84405319) was 0.113 and the ΔPSI (FAM175A Exon 84405145-84405319) was −0.005. The Effect [4] was “Exc”, the T-PSI [4] was 0.449 and the ΔPSI [4] was −0.134. For the same compound, the Effect (FAM208B Exon 5777267-5777509) was “Unc”, the T-PSI (FAM208B Exon 5777267-5777509) was 0.807 and the ΔPSI (FAM208B Exon 5777267-5777509) was −0.009. For the same compound, the Effect [5] was “Exc”, the T-PSI [5] was 0.179 and the ΔPSI [5] was −0.149. For the same compound, the Effect [6] was “Exc”, the T-PSI [6] was 0.180 and the ΔPSI [6] was −0.133. The Effect [7] was “Exc”, the T-PSI [7] was 0.155 and the ΔPSI [7] was −0.124. For the same compound, the Effect (FAP Exon 163054689-163054808) was “Exc”, the T-PSI (FAP Exon 163054689-163054808) was 0.303 and the ΔPSI (FAP Exon 163054689-163054808) was −0.258. The Effect (FBXL3 Exon 77595792-77595996) was “Inc”, the T-PSI (FBXL3 Exon 77595792-77595996) was 0.926 and the ΔPSI (FBXL3 Exon 77595792-77595996) was 0.169. The Effect (FBXL12 Exon 9923907-9923950) was “Exc”, the T-PSI (FBXL12 Exon 9923907-9923950) was 0.025 and the ΔPSI (FBXL12 Exon 9923907-9923950) was −0.145. The Effect (FBXO25 Exon 382886-382935) was “Exc”, the T-PSI (FBXO25 Exon 382886-382935) was 0.715 and the ΔPSI (FBXO25 Exon 382886-382935) was −0.125. For the same compound, the Effect [8] was “Exc”, the T-PSI [8] was 0.318 and the ΔPSI [8] was −0.156. The Effect (PFDN1 Exon 139680001-139680167) was “Exc”, the Effect (PFDN5 Exon 53690214-53690335) was “Unc” and the Effect (PFDN5 Exon 53690238-53690335) was “Unc”. The Effect (PFDN6 Exon 33258103-33258227) was “Exc”, the T-PSI (PFDN6 Exon 33258103-33258227) was 0.847 and the ΔPSI (PFDN6 Exon 33258103-33258227) was −0.117. For the same compound, the Effect (PFKM Exon 48529074-48529166) was “Exc”, the T-PSI (PFKM Exon 48529074-48529166) was 0.563 and the ΔPSI (PFKM Exon 48529074-48529166) was −0.120. The Effect (PHC3 Exon 169846128-169846175) was “Inc”, the T-PSI (PHC3 Exon 169846128-169846175) was 0.373 and the ΔPSI (PHC3 Exon 169846128-169846175) was 0.148. For the same compound, the Effect (PHKG2 Exon 30767503-30767593) was “Exc”, the T-PSI (PHKG2 Exon 30767503-30767593) was 0.799 and the ΔPSI (PHKG2 Exon 30767503-30767593) was −0.177. The Effect [9] was “Inc”, the T-PSI [9] was 0.239 and the ΔPSI [9] was 0.143. For the same compound, the Effect (PHLPP2 Exon 71718379-71718504) was “Unc”, the T-PSI (PHLPP2 Exon 71718379-71718504) was 0.867 and the ΔPSI (PHLPP2 Exon 71718379-71718504) was 0.001. The Effect (PI4KB Exon 151282687-151282731) was “Exc”, the T-PSI (PI4KB Exon 151282687-151282731) was 0.168 and the ΔPSI (PI4KB Exon 151282687-151282731) was −0.129. The Effect (PI4KB Exon 151298648-151298849) was “Exc”, the T-PSI (PI4KB Exon 151298648-151298849) was 0.314 and the ΔPSI (PI4KB Exon 151298648-151298849) was −0.195. The Effect (PIGF Exon 46815214-46815318) was “Unc”, the T-PSI (PIGF Exon 46815214-46815318) was 0.139 and the ΔPSI (PIGF Exon 46815214-46815318) was −0.004. The Effect (PIGG Exon 524225-524534) was “Exc”, the T-PSI (PIGG Exon 524225-524534) was 0.784 and the ΔPSI (PIGG Exon 524225-524534) was −0.162. The Effect (PIGN Exon 59830764-59830889) was “Inc”, the T-PSI (PIGN Exon 59830764-59830889) was 0.945 and the ΔPSI (PIGN Exon 59830764-59830889) was 0.323. The Effect (PIGP Exon 38444445-38444610) was “Unc”, the T-PSI (PIGP Exon 38444445-38444610) was 0.163 and the ΔPSI (PIGP Exon 38444445-38444610) was 0.001. The Effect (PIGQ Exon 632248-632309) was “Unc”, the T-PSI (PIGQ Exon 632248-632309) was 0.790 and the ΔPSI (PIGQ Exon 632248-632309) was 0.005. For the same compound, the Effect (PIGT Exon 44045157-44045294) was “Exc”, the T-PSI (PIGT Exon 44045157-44045294) was 0.752 and the ΔPSI (PIGT Exon 44045157-44045294) was −0.165. For the same compound, the Effect (PIGT Exon 44045157-44045334) was “Exc”, the T-PSI (PIGT Exon 44045157-44045334) was 0.751 and the ΔPSI (PIGT Exon 44045157-44045334) was −0.167. The Effect (PIK3C2A Exon 17169064-17169175) was “Exc”, the T-PSI (PIK3C2A Exon 17169064-17169175) was 0.871 and the ΔPSI (PIK3C2A Exon 17169064-17169175) was −0.111. The Effect [10] was “Exc”, the T-PSI [10] was 0.309 and the ΔPSI [10] was −0.190. The Effect (PILRB Exon 99950833-99950893) was “Exc” and the T-PSI (PILRB Exon 99950833-99950893) was 0.688.

Source: US20230047208A1, “RNA Splicing Modulation” (The General Hospital Corporation, priority 2020, published 2023)
